# Some of the results follow.
# B1: Awp1 (Candida glabrata) (protein)
# chain: MSLITIFAFLIKATLVLSLDILTPTTLTGDQTFNEDVSVVSSLTLNDGSQYLFNNLLQIAPSSASVTANALAAVSVFTFSLPPSSSLSNSGTLIISNSNTGPSTEQHIVITPNVMANTGTITLSLAHTNTDSSSTLIIDPVTFYNTGTINYESIGSETNDPSLTGNILSIGSSGRTLQNLGTINLNAANSYYLLGTITENSGSINVQKGFLYVNALDFIGNTINLSTTTALAFISPVSQVVRVRGVFFGNIIASVGSSGTFSYNTQTGILTVTTNGVYSYDIGCGYNPALMSGQQETLSFQGNPYDTFLVLVNQPIPSDLTCAAVSSSITPSSSVEPSSSVVPSSSVEPSSSVEPSSSVEPSSSVEPSSSVEPSSSVEPSSSVEPSSSVEPSSSVEPSSSVEPSSSVEPSSSVEPSSSVEPSSSVEPSSSVEPSSSVEPSSSVEPSSSVEPSSSVEPSSLIVPSSSVEPSSSVLPSSSVVPSSSVEPSTPPIPSSSVEPSSSVVPSSPAVPSSSVEPSTPPIPSSSVVSASVFDTSSTLPSSPSVPPSSVSPSTISTPSSSAAPSSFCPTCVSSGTPPAPSSSAIVPTSSAGGGNGGDNREPGAAGQPGAAGQPGAAGQPGAAGQPGAAGQPGAAGQPGAAGQPGAAGQPGAAGQPGAAGQPGAGFGVGSEQPTPGAGAGSGSADGNQSGTGSGTGNGQQGSGQAGSGQAGSGQEGSGQAGSGQAGSGQAGSGQAGSGQAGLDNTASGQSEGGQASAMDGDQSGRDGQSNSGSLLQPNAQQGTGSGTGSDIGADQASGESPGQIGDAQPGSGTDQSSGRHSLAAEARTSQSHSLAADARTRSTTRQTSVIAPDTAPGTASGTAPGTAPGTAVVTTFHGCGTVNHKGMINILLALALLVLL
# Legend:
# Experiment in all cases: glycan array binding signal (z-score within array); higher = stronger binding
# Details in all cases: glycan notation: IUPAC condensed, linker removed
# [1] = biological target: Fuc(a1-2)Gal(b1-4)GlcNAc(b1-3)Gal(b1-4)GlcNAc(b1-3)Gal(b1-4)GlcNAc
# Outline: (§1)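 The binding signal is a Z-score computed within each array. Data were drawn from 3228 arrays in the Consortium for Functional Glycomics database, restricted to those with a known protein sequence. Scores were averaged over arrays of the same protein sequence at different concentrations or buffers, and over linkers, and negative values can be taken as non-binding.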
# [2] = biological target: Fuc(a1-2)Gal(b1-4)GlcNAc(b1-3)GalNAc
# Outline: as §1
# [3] = biological target: Fuc(a1-2)Gal(b1-4)GlcNAc(b1-3)[Fuc(a1-2)Gal(b1-4)GlcNAc(b1-6)]GalNAc
# Outline: as §1
# [4] = biological target: Fuc(a1-2)Gal(b1-4)GlcNAc(b1-3)[Fuc(a1-3)[Gal(b1-4)]GlcNAc(b1-6)]Gal(b1-4)Glc
# Outline: as §1
# [5] = biological target: Fuc(a1-2)Gal(b1-4)GlcNAc(b1-6)GalNAc
# Outline: as §1
# [6] = biological target: Fuc(a1-2)Gal(b1-4)GlcNAc6S
# Outline: as §1
# [7] = biological target: Fuc(a1-2)Gal(b1-4)[Fuc(a1-3)]GlcNAc
# Outline: as §1
# [8] = biological target: Fuc(a1-2)Gal(b1-4)[Fuc(a1-3)]GlcNAc(b1-2)Man(a1-3)[Fuc(a1-2)Gal(b1-4)[Fuc(a1-3)]GlcNAc(b1-2)Man(a1-6)]Man(b1-4)GlcNAc(b1-4)[Fuc(a1-6)]GlcNAc
# Outline: as §1
# [9] = biological target: Fuc(a1-2)Gal(b1-4)[Fuc(a1-3)]GlcNAc(b1-2)[Fuc(a1-2)Gal(b1-4)[Fuc(a1-3)]GlcNAc(b1-4)]Man(a1-3)[Fuc(a1-2)Gal(b1-4)[Fuc(a1-3)]GlcNAc(b1-2)Man(a1-6)]Man(b1-4)GlcNAc(b1-4)GlcNAc
# Outline: as §1
# [10] = biological target: Fuc(a1-2)Gal(b1-4)[Fuc(a1-3)]GlcNAc(b1-3)Gal(b1-4)[Fuc(a1-3)]GlcNAc
# Outline: as §1
# [11] = biological target: Fuc(a1-2)Gal(b1-4)[Fuc(a1-3)]GlcNAc(b1-3)Gal(b1-4)[Fuc(a1-3)]GlcNAc(b1-3)Gal(b1-4)[Fuc(a1-3)]GlcNAc
# Outline: as §1
# [12] = biological target: Fuc(a1-2)Gal(b1-4)[Fuc(a1-3)]GlcNAc(b1-3)GalNAc
# Outline: as §1
# [13] = biological target: Fuc(a1-2)Gal(b1-4)[Fuc(a1-3)]GlcNAc(b1-3)[Neu5Ac(a2-6)Gal(b1-4)GlcNAc(b1-6)]Gal(b1-4)Glc
# Outline: as §1
# [14] = biological target: Fuc(a1-2)Gal3S(b1-4)GlcNAc
# Outline: as §1
# [15] = biological target: Fuc(a1-2)Gal6S(b1-3)GlcNAc
# Outline: as §1
# [16] = biological target: Fuc(a1-2)Gal6S(b1-3)GlcNAc6S
# Outline: as §1
# [17] = biological target: Fuc(a1-2)Gal6S(b1-4)Glc
# Outline: as §1
# [18] = biological target: Fuc(a1-2)Gal6S(b1-4)Glc6S
# Outline: as §1
# [19] = biological target: Fuc(a1-2)[Gal(a1-3)]Gal
# Outline: as §1
# [20] = biological target: Fuc(a1-2)[Gal(a1-3)]Gal(b1-3)GalNAc
# Outline: as §1
# [21] = biological target: Fuc(a1-2)[Gal(a1-3)]Gal(b1-3)GalNAc(b1-3)Gal(a1-4)Gal(b1-4)Glc
# Outline: as §1
# [22] = biological target: Fuc(a1-2)[Gal(a1-3)]Gal(b1-3)GlcNAc
# Outline: as §1
# [23] = biological target: Fuc(a1-2)[Gal(a1-3)]Gal(b1-3)GlcNAc(b1-2)Man(a1-3)[Fuc(a1-2)[Gal(a1-3)]Gal(b1-3)GlcNAc(b1-2)Man(a1-6)]Man(b1-4)GlcNAc(b1-4)GlcNAc
# Outline: as §1
# [24] = biological target: Fuc(a1-2)[Gal(a1-3)]Gal(b1-3)GlcNAc(b1-2)Man(a1-3)[Fuc(a1-2)[Gal(a1-3)]Gal(b1-3)GlcNAc(b1-2)Man(a1-6)]Man(b1-4)GlcNAc(b1-4)[Fuc(a1-6)]GlcNAc
# Outline: as §1
# [25] = biological target: Fuc(a1-2)[Gal(a1-3)]Gal(b1-3)GlcNAc(b1-3)GalNAc
# Outline: as §1
# [26] = biological target: Fuc(a1-2)[Gal(a1-3)]Gal(b1-3)GlcNAc(b1-6)GalNAc
# Outline: as §1
# [27] = biological target: Fuc(a1-2)[Gal(a1-3)]Gal(b1-4)Glc
# Outline: as §1
# [28] = biological target: Fuc(a1-2)[Gal(a1-3)]Gal(b1-4)GlcNAc
# Outline: as §1
# [29] = biological target: Fuc(a1-2)[Gal(a1-3)]Gal(b1-4)GlcNAc(b1-2)Man
# Outline: as §1
# [30] = biological target: Fuc(a1-2)[Gal(a1-3)]Gal(b1-4)GlcNAc(b1-2)Man(a1-3)[Fuc(a1-2)[Gal(a1-3)]Gal(b1-4)GlcNAc(b1-2)Man(a1-6)]Man(b1-4)GlcNAc(b1-4)GlcNAc
# Outline: as §1
binder,measurement,setting,value
B1,glycan array binding signal (z-score),[1],0.341
same,glycan array binding signal (z-score),[2],-0.937
same,glycan array binding signal (z-score),[3],-0.293
same,glycan array binding signal (z-score),[4],0.774
same,glycan array binding signal (z-score),[5],0.148
same,glycan array binding signal (z-score),[6],-0.775
same,glycan array binding signal (z-score),[7],-0.654
same,glycan array binding signal (z-score),[8],1.51
same,glycan array binding signal (z-score),[9],-0.117
same,glycan array binding signal (z-score),[10],-0.121
same,glycan array binding signal (z-score),[11],-0.344
same,glycan array binding signal (z-score),[12],-0.894
same,glycan array binding signal (z-score),[13],0.4
same,glycan array binding signal (z-score),[14],0.168
same,glycan array binding signal (z-score),[15],-1.06
same,glycan array binding signal (z-score),[16],-0.166
same,glycan array binding signal (z-score),[17],-1.97
same,glycan array binding signal (z-score),[18],-1.55
same,glycan array binding signal (z-score),[19],-0.64
same,glycan array binding signal (z-score),[20],0.68
same,glycan array binding signal (z-score),[21],-0.456
same,glycan array binding signal (z-score),[22],-0.399
same,glycan array binding signal (z-score),[23],0.143
same,glycan array binding signal (z-score),[24],1.41
same,glycan array binding signal (z-score),[25],-0.195
same,glycan array binding signal (z-score),[26],-1.47
same,glycan array binding signal (z-score),[27],0.47
same,glycan array binding signal (z-score),[28],-0.297
same,glycan array binding signal (z-score),[29],-0.093
same,glycan array binding signal (z-score),[30],0.479

# Five neighbouring entries already listed, quoted:
binder,measurement,setting,value
B1,glycan array binding signal (z-score),[11],-0.344
same,glycan array binding signal (z-score),[12],-0.894
same,glycan array binding signal (z-score),[13],0.4
same,glycan array binding signal (z-score),[14],0.168
same,glycan array binding signal (z-score),[15],-1.06

# From the supplement of paper PMC8728848
